PubChem BioAssay AID1259254 – NCATS – 2017

Test: 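Gene knock-downs that lead to re-replication, shown by excess G2 DNA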 (primary screen)
System: human HCT116 colorectal cancer cells
Reagent: single siRNA against human genes
Timing: 3 days
Detection: 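Nuclei stained with Hoechst and imaged; cell-cycle phase assigned by DNA content; G2 share scaled per plate, non-targeting siRNA 0%, GMNN siRNA 100%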
Scale: G2 robust z-score and G2 cells, % of GMNN control: higher = more G2 cells, more excess DNA replication
Active means: 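Active siRNAs have a G2 robust z of 5 or more median absolute deviations over the median, which in these data means about 38% or higher of GMNN control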
Shown is one part, drawn at random, of about 59,000 reagents. About 1,550 of them (2.6%) count as active. 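G2 share is only a proxy for re-replication; each gene was hit by three separate siRNAs, and active genes were retested.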 A number with no mark means an inactive call. Reagents against one gene are numbered here. Not all columns of the deposit are shown. The record does not give: the amount of reagent.

With PLPP1 (phospholipid phosphatase 1) #1, what does the deposit list?
G2 robust z-score: -0.386; G2 cells, % of GMNN control: 0.25

What did the screen give for PLPP1 (phospholipid phosphatase 1) #2?
G2 robust z-score: -0.687; G2 cells, % of GMNN control: -1.86

What did the screen give for PLPP1 (phospholipid phosphatase 1) #3?
G2 robust z-score: 3.56; G2 cells, % of GMNN control: 28

For AQP10 (aquaporin 10) #1, what was measured?
G2 robust z-score: -0.829; G2 cells, % of GMNN control: -2.87

What is on record for AQP10 (aquaporin 10) #2?
G2 robust z-score: 1.04; G2 cells, % of GMNN control: 10.2

For AQP10 (aquaporin 10) #3, what was measured?
G2 robust z-score: -0.942; G2 cells, % of GMNN control: -3.66

With STAU2 (staufen double-stranded RNA binding protein 2) #1, what was measured?
G2 robust z-score: 2.91; G2 cells, % of GMNN control: 23.4

What did the screen give for STAU2 (staufen double-stranded RNA binding protein 2) #2?
G2 robust z-score: 0.747; G2 cells, % of GMNN control: 8.22

How did the screen score STAU2 (staufen double-stranded RNA binding protein 2) #3?
G2 robust z-score: 5.43 (active); G2 cells, % of GMNN control: 41.2

For STX11 (syntaxin 11) #1, what was measured?
G2 robust z-score: -0.0679; G2 cells, % of GMNN control: 2.49

What did the screen give for STX11 (syntaxin 11) #2?
G2 robust z-score: -0.0829; G2 cells, % of GMNN control: 2.38

What is on record for STX11 (syntaxin 11) #3?
G2 robust z-score: -0.87; G2 cells, % of GMNN control: -3.16

For NHP2 (NHP2 ribonucleoprotein) #1, what does the deposit list?
G2 robust z-score: 10.4 (active); G2 cells, % of GMNN control: 76.2

For NHP2 (NHP2 ribonucleoprotein) #2, what does the deposit list?
G2 robust z-score: 1.1; G2 cells, % of GMNN control: 10.7

With NHP2 (NHP2 ribonucleoprotein) #3, what does the deposit list?
G2 robust z-score: 0.582; G2 cells, % of GMNN control: 7.06

Which result is listed for GFRA1 (GDNF family receptor alpha 1) #1?
G2 robust z-score: 0.142; G2 cells, % of GMNN control: 3.97

What did the screen give for GFRA1 (GDNF family receptor alpha 1) #2?
G2 robust z-score: -0.798; G2 cells, % of GMNN control: -2.65

Which result is listed for GFRA1 (GDNF family receptor alpha 1) #3?
G2 robust z-score: 0.156; G2 cells, % of GMNN control: 4.07

With MSRA (methionine sulfoxide reductase A) #1, what was measured?
G2 robust z-score: 1.53; G2 cells, % of GMNN control: 13.8

With MSRA (methionine sulfoxide reductase A) #2, what does the deposit list?
G2 robust z-score: -0.597; G2 cells, % of GMNN control: -1.23

How did the screen score MSRA (methionine sulfoxide reductase A) #3?
G2 robust z-score: 3.87; G2 cells, % of GMNN control: 30.2

How did the screen score UBA3 (ubiquitin like modifier activating enzyme 3) #1?
G2 robust z-score: -1.15; G2 cells, % of GMNN control: -5.12

With UBA3 (ubiquitin like modifier activating enzyme 3) #2, how do the results read?
G2 robust z-score: -0.0075; G2 cells, % of GMNN control: 2.91

What is on record for UBA3 (ubiquitin like modifier activating enzyme 3) #3?
G2 robust z-score: -0.681; G2 cells, % of GMNN control: -1.82
